From PMC5201015

Chains of the proteins cited; added tags and fusions are not shown. Lines headed by an entry give the natural chain unless they say otherwise; changes in a name come on top.
UniProt Q8IXJ6: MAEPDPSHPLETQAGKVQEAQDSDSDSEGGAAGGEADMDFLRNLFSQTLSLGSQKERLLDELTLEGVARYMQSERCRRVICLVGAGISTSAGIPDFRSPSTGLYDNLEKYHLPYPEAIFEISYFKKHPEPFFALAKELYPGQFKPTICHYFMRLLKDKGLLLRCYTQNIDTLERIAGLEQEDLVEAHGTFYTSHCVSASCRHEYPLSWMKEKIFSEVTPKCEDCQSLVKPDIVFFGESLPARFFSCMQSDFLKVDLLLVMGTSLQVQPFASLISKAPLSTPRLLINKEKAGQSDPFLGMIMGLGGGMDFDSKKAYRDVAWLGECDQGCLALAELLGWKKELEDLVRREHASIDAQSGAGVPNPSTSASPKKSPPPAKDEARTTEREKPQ
UniProt Q13547: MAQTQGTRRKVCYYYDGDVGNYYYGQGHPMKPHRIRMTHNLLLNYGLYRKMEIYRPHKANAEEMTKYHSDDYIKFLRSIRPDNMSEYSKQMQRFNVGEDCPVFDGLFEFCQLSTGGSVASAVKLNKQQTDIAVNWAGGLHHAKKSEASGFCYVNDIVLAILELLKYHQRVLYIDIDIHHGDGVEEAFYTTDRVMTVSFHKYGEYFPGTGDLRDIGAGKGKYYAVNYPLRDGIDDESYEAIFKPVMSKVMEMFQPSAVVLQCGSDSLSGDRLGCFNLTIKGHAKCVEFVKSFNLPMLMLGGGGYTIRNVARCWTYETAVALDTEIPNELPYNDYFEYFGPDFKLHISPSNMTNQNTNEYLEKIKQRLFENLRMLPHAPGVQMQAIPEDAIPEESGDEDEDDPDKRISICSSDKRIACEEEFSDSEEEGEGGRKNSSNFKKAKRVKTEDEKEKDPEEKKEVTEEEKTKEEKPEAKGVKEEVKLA
UniProt Q15003: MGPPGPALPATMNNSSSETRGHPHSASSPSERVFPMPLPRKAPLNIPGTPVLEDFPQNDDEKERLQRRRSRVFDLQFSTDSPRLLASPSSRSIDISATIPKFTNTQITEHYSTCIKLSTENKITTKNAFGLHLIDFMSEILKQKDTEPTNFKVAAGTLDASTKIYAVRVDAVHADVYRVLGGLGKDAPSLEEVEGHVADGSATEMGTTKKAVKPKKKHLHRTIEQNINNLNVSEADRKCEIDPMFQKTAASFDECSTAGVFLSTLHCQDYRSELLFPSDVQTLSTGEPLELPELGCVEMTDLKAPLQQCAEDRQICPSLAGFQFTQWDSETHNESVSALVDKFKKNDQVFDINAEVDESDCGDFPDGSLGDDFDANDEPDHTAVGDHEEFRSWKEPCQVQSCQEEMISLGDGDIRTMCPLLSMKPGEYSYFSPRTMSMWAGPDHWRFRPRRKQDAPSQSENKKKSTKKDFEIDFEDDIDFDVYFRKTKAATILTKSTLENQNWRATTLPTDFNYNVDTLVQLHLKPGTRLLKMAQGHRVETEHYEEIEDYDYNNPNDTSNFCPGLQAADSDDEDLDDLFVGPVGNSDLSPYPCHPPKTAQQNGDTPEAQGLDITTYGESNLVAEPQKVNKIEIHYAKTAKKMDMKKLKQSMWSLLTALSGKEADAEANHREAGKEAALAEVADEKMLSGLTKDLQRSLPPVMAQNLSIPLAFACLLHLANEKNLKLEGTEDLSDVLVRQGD
UniProt P18754: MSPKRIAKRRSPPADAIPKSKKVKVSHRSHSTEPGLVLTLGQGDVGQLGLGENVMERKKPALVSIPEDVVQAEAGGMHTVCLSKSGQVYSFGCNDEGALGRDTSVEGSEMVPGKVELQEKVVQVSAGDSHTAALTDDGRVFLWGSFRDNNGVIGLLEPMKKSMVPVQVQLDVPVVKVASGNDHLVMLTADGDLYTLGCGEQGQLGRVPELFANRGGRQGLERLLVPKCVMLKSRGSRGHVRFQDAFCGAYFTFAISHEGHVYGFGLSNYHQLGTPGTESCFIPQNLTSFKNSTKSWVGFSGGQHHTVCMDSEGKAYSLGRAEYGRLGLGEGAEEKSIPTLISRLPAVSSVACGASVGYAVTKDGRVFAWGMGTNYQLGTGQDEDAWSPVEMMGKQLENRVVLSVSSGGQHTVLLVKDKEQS
UniProt P53618: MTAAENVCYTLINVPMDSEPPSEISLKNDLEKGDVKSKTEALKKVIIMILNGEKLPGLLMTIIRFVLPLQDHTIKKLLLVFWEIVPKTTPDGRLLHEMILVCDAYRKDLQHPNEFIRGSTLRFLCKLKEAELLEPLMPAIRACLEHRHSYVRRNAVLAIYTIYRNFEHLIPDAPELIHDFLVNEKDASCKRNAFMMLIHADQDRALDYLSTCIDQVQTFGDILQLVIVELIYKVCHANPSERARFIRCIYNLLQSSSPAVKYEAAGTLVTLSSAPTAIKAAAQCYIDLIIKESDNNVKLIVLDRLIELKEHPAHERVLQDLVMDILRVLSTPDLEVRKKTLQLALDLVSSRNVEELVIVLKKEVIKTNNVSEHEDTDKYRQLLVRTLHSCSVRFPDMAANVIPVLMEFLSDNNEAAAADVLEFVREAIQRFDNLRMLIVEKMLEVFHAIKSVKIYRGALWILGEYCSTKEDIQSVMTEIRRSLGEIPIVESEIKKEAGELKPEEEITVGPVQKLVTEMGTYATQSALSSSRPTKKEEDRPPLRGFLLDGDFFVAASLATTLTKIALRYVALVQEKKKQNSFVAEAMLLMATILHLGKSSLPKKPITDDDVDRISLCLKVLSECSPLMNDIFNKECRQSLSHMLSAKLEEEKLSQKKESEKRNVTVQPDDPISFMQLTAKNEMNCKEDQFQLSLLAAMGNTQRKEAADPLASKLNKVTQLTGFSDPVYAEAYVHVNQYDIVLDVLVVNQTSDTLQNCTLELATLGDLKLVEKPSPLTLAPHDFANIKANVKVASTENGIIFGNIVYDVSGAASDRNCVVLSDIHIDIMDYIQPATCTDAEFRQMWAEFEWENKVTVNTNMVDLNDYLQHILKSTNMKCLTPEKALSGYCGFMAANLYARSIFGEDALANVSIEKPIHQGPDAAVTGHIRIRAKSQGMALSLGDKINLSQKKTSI

B1: COPG2 (co-immunoprecipitation of Fig. S2F–H) (protein, UniProt Q9UBF2 1-871)
chain: MIKKFDKKDEESGSGSNPFQHLEKSAVLQEARIFNETPINPRRCLHILTKILYLLNQGEHFGTTEATEAFFAMTRLFQSNDQTLRRMCYLTIKEMATISEDVIIVTSSLTKDMTGKEDVYRGPAIRALCRITDGTMLQAIERYMKQAIVDKVSSVSSSALVSSLHMMKISYDVVKRWINEAQEAASSDNIMVQYHALGVLYHLRKNDRLAVSKMLNKFTKSGLKSQFAYCMLIRIASRLLKETEDGHESPLFDFIESCLRNKHEMVIYEAASAIIHLPNCTARELAPAVSVLQLFCSSPKPALRYAAVRTLNKVAMKHPSAVTACNLDLENLITDSNRSIATLAITTLLKTGSESSVDRLMKQISSFVSEISDEFKVVVVQAISALCQKYPRKHSVMMTFLSNMLRDDGGFEYKRAIVDCIISIVEENPESKEAGLAHLCEFIEDCEHTVLATKILHLLGKEGPRTPVPSKYIRFIFNRVVLENEAVRAAAVSALAKFGAQNESLLPSILVLLQRCMMDTDDEVRDRATFYLNVLQQRQMALNATYIFNGLTVSVPGMEKALHQYTLEPSEKPFDMKSIPLAMAPVFEQKAEITLVATKPEKLAPSRQDIFQEQLAAIPEFLNIGPLFKSSEPVQLTEAETEYFVRCIKHMFTNHIVFQFDCTNTLNDQLLEKVTVQMEPSDSYEVLSCIPAPSLPYNQPGICYTLVRLPDDDPTAVAGSFSCTMKFTVRDCDPNTGVPDEDGYDDEYVLEDLEVTVSDHIQKVLKPNFAAAWEEVGDTFEKEETFALSSTKTLEEAVNNIITFLGMQPCERSDKVPENKNSHSLYLAGIFRGGYDLLVRSRLALADGVTMQVTVRSKERTPVDVILASVG
B2: kinetochore-associated protein SKAP (also known as KNSTRN) (co-immunoprecipitation of Fig. S2F–H) (protein, UniProt Q9Y448 1-316)
chain: MAAPEAPPLDRVFRTTWLSTECDSHPLPPSYRKFLFETQAADLAGGTTVAAGNLLNESEKDCGQDRRAPGVQPCRLVTMTSVVKTVYSLQPPSALSGGQPADTQTRATSKSLLPVRSKEVDVSKQLHSGGPENDVTKITKLRRENGQMKATDTATRRNVRKGYKPLSKQKSEEELKDKNQLLEAVNKQLHQKLTETQGELKDLTQKVELLEKFRDNCLAILESKGLDPALGSETLASRQESTTDHMDSMLLLETLQEELKLFNETAKKQMEELQALKVKLEMKEERVRFLEQQTLCNNQVNDLTTALKEMEQLLEM

Biological target: SIRT2 (as used in the co-immunoprecipitations of Fig. S2F–H) (UniProt Q8IXJ6)
Assay: co-IP; co-immunoprecipitation from HEK293 cells (Fig. S2F–H); bait and tags not told

binding | Molecule
binds | HDAC1 (co-immunoprecipitation of Fig. S2F–H) (from UniProt Q13547 1-482) (enzyme)
binds | condensin subunit CND2 (also known as NCAPH) (co-immunoprecipitation of Fig. S2F–H) (from UniProt Q15003 1-741)
binds | RCC1 (co-immunoprecipitation of Fig. S2F–H) (from UniProt P18754 1-421)
binds | COPB1 (co-immunoprecipitation of Fig. S2F–H) (from UniProt P53618 1-953)
binds | B1
binds | B2

These are yes or no findings as the source states them, for the method shown. In cells and extracts the contact can be indirect. Binding can be weak; no strength is given.
